These are yes or no findings as the source states them, for the method shown. In cells and extracts the contact can be indirect. Some results given as binding are weak or reduced against the parent protein; the word gives no strength.

By UniProt entry, the sequences of proteins in these tests, tags left out.
UniProt P83949: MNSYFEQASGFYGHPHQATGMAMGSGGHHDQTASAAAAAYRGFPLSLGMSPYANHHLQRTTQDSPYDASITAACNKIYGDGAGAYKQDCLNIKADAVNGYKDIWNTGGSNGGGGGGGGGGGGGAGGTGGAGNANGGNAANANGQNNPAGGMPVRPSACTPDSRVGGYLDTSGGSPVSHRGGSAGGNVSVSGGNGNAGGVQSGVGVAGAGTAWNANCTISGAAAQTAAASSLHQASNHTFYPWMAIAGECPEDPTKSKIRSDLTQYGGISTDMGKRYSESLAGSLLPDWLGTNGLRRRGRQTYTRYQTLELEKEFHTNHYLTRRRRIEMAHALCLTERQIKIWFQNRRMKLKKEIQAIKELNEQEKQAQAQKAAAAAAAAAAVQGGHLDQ

The chains are these.
B1: Polycomb (Pc), endogenous (protein, UniProt P26017 1-390)
chain: MTGRGKGSKGKLGRDNATDDPVDLVYAAEKIIQKRVKKGVVEYRVKWKGWNQRYNTWEPEVNILDRRLIDIYEQTNKSSGTPSKRGIKKKEKEPDPEPESEEDEYTFTENDVDTHQATTSSATHDKESKKEKKHHHHHHHHHHIKSERNSGRRSESPLTHHHHHHHHESKRQRIDHSSSSNSSFTHNSFVPEPDSNSSSSEDQPLIGTKRKAEVLKESGKIGVTIKTSPDGPTIKPQPTQQVTPSQQQPFQDQQQAEKIASEAATQLKSEQQATPLATEAINTTPAESGAEEEEVANEEGNQQAPQVPSENNNIPKPCNNLAINQKQPLTPLSPRALPPRFWLPAKCNISNRVVITDVTVNLETVTIRECKTERGFFRERDMKGDSSPVA
B2: Motif 1 binding protein (M1BP), endogenous (protein, UniProt Q9VHM3 1-418)
chain: MSKSALKHLKSTCRVCAKYASNKRSPKLFERSNTKMIDNIEALTGLRLENYGCLPDQICECCSMELASAVKLRERCIAAQRELLLGLTEEQRQGISAFYRAAVMGEDIVQTVKTPDDDEVYATYQEIVLEEPKEEIDDTKVEYDNTYYEVAEGHAGEDDAASLIEEADYDSIMAEDEEQQQTLELDEDTELIVGDVNDAYVYDSDDEVAVLDNVLDDEYEHENIVVKKCSLPPKPKVRSDDARRRGTGGVYICEQCGNHIKGRMAFELHCRRHRGDKQFGCELCQSRFCTTSELKRHMRKHTGERPFACKYCGRCFTDYTTRVKHERTHTNERPYVCGTCGKAFTTGYILKNHMLIHSGERAYRCELCDKSFMLPTHLSTHFRSGVHKRHLEKAEMKQVLEQEQKRELKEEEEDSLHI
B3: Tinman (Tin), endogenous (protein, UniProt P22711 1-416)
chain: MLQHHQQQAQSGGYYDHYTQSPSPGSLTNADALNTTPFSVKDILNMVNQTEAYEGSYGHIDGAATASALFAAGEYQNPHQYLNHQQHQQSELPIPQQQLHHQHLDDGATTSSSLSPLLPPPPHQLYGGYQDYGMPAHMFQHHHGHPHQSFQHSASAYNMSASQFYAGASATAYQTPATYNYNYAGSGEVYGGATPSAVGIKSEYIPTPYVTPSPTLDLNSSAEVDSLQAPTQKLCVNPLSQRLMETASNSSSLRSIYGSDEGAKKKDNSQVTSSRSELRKNSISGNSNPGSNSGSTKPRMKRKPRVLFSQAQVLELECRFRLKKYLTGAEREIIAQKLNLSATQVKIWFQNRRYKSKRGDIDCEGIAKHLKLKSEPLDSPTSLPPPIPNHVMWPPTMQQSQQQQQHHAQQQQMQHM

For this experiment, the target named is GFP-Ubx expressed from the endogenous Ubx locus (Drosophila (endogenous in embryos)) (UniProt P83949). Put plainly: co-IP; embryos (w1118 control or endogenous GFP-Ubx) fixed with 3.2% formaldehyde; nuclear lysate sonicated, Benzonase treated, in NP40 buffer (20 mM Tris pH 7.5, 150 mM NaCl, 2 mM EDTA, 1% NP40), overnight with GFP-Trap beads; immunoblot; endogenous levels of all proteins.
Turning to B1, the binding entry is reported as “no binding”.

Turning to B2, the binding entry was “binds”.

B3: the binding entry is “binds”.

Source of the values: publication PMC7069958.
